Hit rate of the full screen: of about 360,000 compounds, about 10,000 (2.8%) were called active. The shares of active, inactive and inconclusive entries below differ from those in the screen. Calls come from the whole dose curve; as a rule, active = well fitted inhibition curve with a large enough effect; inconclusive = small, poorly fitted or top-dose-only effect; inactive = flat fitted curve, though single readings scatter. A potency beside an inconclusive call is a rough fit, not a confirmed value.
Biological target: Serine/threonine-protein kinase PLK1 (Homo sapiens) (UniProt P53350)
Assay: qHTS for Inhibitors of PLK1-PDB (polo-like kinase 1 - polo-box domain): Primary Screen; note: nearly all actives have a fitted effect of over 65% in size; for max response, negative = inhibition: series mostly up to about 57 µM
Conditions: Plk1 PBD binding of FITC phosphopeptide, fluorescence polarization
% is set by controls: 0 for no effect and ±100 for the full control effect; potency is the fitted concentration of half-maximal effect.

Amino acid sequences for entries named in this document (tags omitted).
UniProt P53350, whole entry, looked up: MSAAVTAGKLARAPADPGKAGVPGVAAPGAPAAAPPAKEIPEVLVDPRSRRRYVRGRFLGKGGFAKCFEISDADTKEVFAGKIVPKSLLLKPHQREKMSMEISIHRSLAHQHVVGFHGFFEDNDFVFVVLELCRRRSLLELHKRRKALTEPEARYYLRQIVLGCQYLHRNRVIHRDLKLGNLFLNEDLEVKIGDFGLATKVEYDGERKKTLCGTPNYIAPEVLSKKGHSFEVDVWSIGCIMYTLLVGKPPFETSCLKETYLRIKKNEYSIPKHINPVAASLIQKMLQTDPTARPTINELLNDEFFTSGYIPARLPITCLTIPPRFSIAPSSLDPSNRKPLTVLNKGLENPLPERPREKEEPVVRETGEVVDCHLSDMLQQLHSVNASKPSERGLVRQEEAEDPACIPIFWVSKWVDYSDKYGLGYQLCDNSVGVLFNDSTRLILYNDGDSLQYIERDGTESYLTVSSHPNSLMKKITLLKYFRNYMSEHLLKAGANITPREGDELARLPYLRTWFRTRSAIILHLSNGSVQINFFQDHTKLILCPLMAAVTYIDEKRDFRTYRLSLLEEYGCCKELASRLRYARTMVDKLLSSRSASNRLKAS

Compound | Potency | max response, negative = inhibition
COc1ccc(CCn2c(C)cc(C(=O)CCl)c2C)cc1OC | inconclusive: 37.7 µM [inhibitor, single point] | 
C/C(=N\NC(=O)c1c[nH]c2ccccc12)c1ccc2c(c1)OCO2 |  | inconclusive: -33.3% [inhibitor]
Nc1ccc(-c2c3ccc(=O)cc-3oc3cc(O)ccc23)cc1C(=O)O | active: 13.4 µM | 
CS(=O)(=O)c1ccc(C(=O)OC2CCOC2=O)cc1[N+](=O)[O-] (stereo not given) |  | inactive: -26.3%
CSc1cccc(NC(=O)CSc2ccccc2)c1 | inconclusive: 26.7 µM [inhibitor, partial curve] | 
N#C/C(Cn1c[n+](NC(=O)Nc2ccccc2)cn1)=N/O |  | inactive: -4.76%
CCCC1=NN2C(=N)/C(=C\c3ccc(OCCOc4ccc(NC(C)=O)cc4)c(OC)c3)C(=O)N=C2S1 | inconclusive: 23.8 µM [inhibitor, single point] | 
N#Cc1cc([N+](=O)[O-])ccc1N1CCCC1 | active: 26.7 µM | 
COCCn1c(C)cc(/C=N/NC(=O)c2cccnc2)c1C | inconclusive: 37.7 µM [inhibitor, single point] | 
O=C(O)C1=CCC=CC1C(=O)O (stereo not given) | inconclusive: 23.8 µM [inhibitor, partial curve] | 
CN1C(=O)/C(=C/c2ccco2)SC1=Nc1cccc(C(=O)O)c1 | inconclusive: 37.7 µM [inhibitor, single point] | 
CN(C)c1cc(Nc2ccc(O)cc2)c([N+](=O)[O-])c2nonc12 | inconclusive: 21.2 µM [inhibitor, partial curve] | 
CNC(=O)NC(=S)NC(=O)c1ccccc1Cl |  | inactive: -20.9%
c1ccc(-c2cc3c(N4CCN(c5ccccc5)CC4)ncnc3s2)cc1 |  | inconclusive: -31.1% [inhibitor]
COc1ccc(NS(=O)(=O)c2cc(NC(=O)c3cnccn3)ccc2N2CCCC2)cc1 | active: 21.2 µM | 
COc1ccc(OCc2cc(C(=O)N3CCCC(CO)C3)no2)c2ccccc12 (stereo not given) |  | inactive: -3.72%
COc1ccccc1-n1ccnc1SCC(=O)NCc1ccco1 | active: 23.8 µM | 
Cc1cccc(NC(=O)c2nc(S(=O)(=O)Cc3ccccc3)ncc2Cl)c1 | active: 8.44 µM | 
Cn1c(CCC(=O)O)nc2cc(S(=O)(=O)N3CCCCC3)ccc21 | active: 26.7 µM | 
CCCCCN1C=CC=C/C1=C\C=C(C#N)C#N | inconclusive: 37.7 µM [inhibitor, single point] | 
CSCCC(NC(=O)c1ccccc1Cl)C(=O)Nc1ccc(C)c(S(=O)(=O)N2CCOCC2)c1 (stereo not given) |  | inactive: 0.558%
Cc1ccc(-n2c(C)cc(C(=S)N3CCOCC3)c2C)cc1C |  | inconclusive: -30.9% [inhibitor]
CC(=O)OCC(OC(C)=O)C(OC(C)=O)C(OC(C)=O)C(=O)Nc1ccccc1C (stereo not given) |  | inactive: -8.62%
CC(C)[C@@H](CO)N(C)S(=O)(=O)c1ccccc1Br |  | inactive: -12.1%
Cn1ncc(Cl)c1C(=O)Nc1cccc(Cl)c1 | active: 23.8 µM | 

Compound | Potency | max response, negative = inhibition
CC1CC=C(O)C12OCC(C)(C)CO2 (stereo not given) |  | inactive: -16.1%
Nc1ccccc1SCC(=O)Nc1ccc2c(c1)OCO2 | inconclusive: 33.6 µM [inhibitor, single point] | 
CC(C)(CO)Nc1nc(N2CCCC2)nc(N2CCCC2)n1 | inconclusive: 37.7 µM [inhibitor, single point] | 
O=C(CCN1CCc2ccccc2C(O)(c2ccccc2)C1)c1ccc2c(c1)OCCO2 (stereo not given) | inconclusive: 7.52 µM [inhibitor, partial curve] | 
CCc1cc2cc3c(cc2nc1SCC(=O)N1CCN(C(=O)c2ccco2)CC1)OCO3 |  | inactive: -15.4%
COC(=O)c1ccc(NC(=O)c2c(C(=O)Nc3ccccc3)sc3nc(C)cc(=O)n23)cc1 | inconclusive: 23.8 µM [inhibitor, single point] | 
Cc1cccn2c(=O)c3cc(C(=O)NC4CCCC4)c(=N)n(CCCN4CCOCC4)c3nc12 |  | inactive: -12%
CCc1ccc(-c2csc(NC(=O)Oc3ccccc3)n2)cc1 | inconclusive: 26.7 µM [inhibitor, partial curve] | 
CC[N+]1(C)CCC(O)(c2ccc(OC)cc2)C(C(=O)c2ccc(OC)cc2)C1 (stereo not given) | active: 6.7 µM | 
COCc1n[nH]c(=S)n1-c1cccc2ccccc12 |  | inactive: -7.4%
O=C(CSc1ccccc1)NC1=NCCS1 |  | inactive: -4.3%
C#CCN1C(=O)S/C(=C\c2ccc(-c3ccc(C(=O)O)cc3C)o2)C1=O | inconclusive: 29.9 µM [inhibitor, single point] | 
Cc1nnc2ccc(N3CCN(c4ccccn4)CC3)nn12 | inconclusive: 26.7 µM [inhibitor, single point] | 
COCCCN1C(=O)C(CC(=O)NCc2ccco2)CC(C(=O)N(C(C)C)C(C)C)=C1C (stereo not given) |  | inactive: -0.293%
O=C(c1ccccc1)N1CCN(C(=O)c2ccccc2)CC1 |  | inactive: -3.21%
Cc1ccccc1NC(=O)CN1C(=O)N/C(=C\c2cccn2-c2cccc(C(=O)O)c2)C1=O | inconclusive: 23.8 µM [inhibitor, single point] | 
NCCCC(=O)O |  | inactive: -2.78%
COc1cc(CN2CCN(CC#Cc3ccccc3)CC2CCO)cc(OC)c1 (stereo not given) |  | inactive: -3.88%
CC(=O)Nc1cc(-c2ccc(N)nc2)cn2c(-c3cccc(C(F)(F)F)c3)cnc12 | inconclusive: 18.9 µM [inhibitor, partial curve] | 
O=C(/C=C/c1ccccc1)CCN1CCCCC1 | active: 6.7 µM | 
COCCN(C(=O)COC(=O)CCSc1ccc(F)cc1)c1c(N)n(Cc2ccccc2)c(=O)[nH]c1=O | inconclusive: 23.8 µM [inhibitor, single point] | 
O=S(CC(O)c1ccccc1)c1ccccc1 (stereo not given) | inconclusive: 3.36 µM [inhibitor, partial curve] | 
CCCCN1CC(=O)N2[C@H](c3ccc(Cl)cc3)[C@@H]3C(=O)N(CC)C(=O)[C@@H]3[C@]2(Cc2ccccc2)C1=O | inconclusive: 29.9 µM [inhibitor, partial curve] | 
O=C(CN1C(=O)/C(=C/c2cccc(Br)c2)SC1=S)NCCCN1CCOCC1 | inconclusive: 13.4 µM [inhibitor, partial curve] | 
Cc1nc(SCC(=O)NC2CCS(=O)(=O)C2)c2c3c(sc2n1)CCC3 (stereo not given) |  | inactive: -5.43%

Three compounds from above, sorted by heavy-atom count, descending:
Compound | Potency | max response, negative = inhibition
CC(=O)Nc1cc(-c2ccc(N)nc2)cn2c(-c3cccc(C(F)(F)F)c3)cnc12 | inconclusive: 18.9 µM [inhibitor, partial curve] | 
COCc1n[nH]c(=S)n1-c1cccc2ccccc12 |  | inactive: -7.4%
O=S(CC(O)c1ccccc1)c1ccccc1 (stereo not given) | inconclusive: 3.36 µM [inhibitor, partial curve] | 

More compounds follow:

Compound | Potency | max response, negative = inhibition
CC[n+]1c(/C=C(\C)SC)sc2ccccc21 |  | inconclusive: -30.6% [inhibitor]
Cc1ccc(-c2cc(C(=O)Nc3nccs3)c3ccccc3n2)o1 | inconclusive: 26.7 µM [inhibitor, partial curve] | 
Cn1nccc1C(=O)NC(=S)Nc1cc(Cl)cc(Cl)c1 | inconclusive: 42.3 µM [inhibitor, partial curve] | 
Fc1ccccc1CSc1ccc(-c2ccco2)nn1 | inconclusive: 29.9 µM [inhibitor, partial curve] | 
CCOC(=O)c1ccc(N2C(=O)CC(C(=O)OC)=C2C)cc1 | inconclusive: 26.7 µM [inhibitor, single point] | 
O=C(O)CSCC(=O)N1CCN(S(=O)(=O)c2ccccc2)CC1 |  | inactive: -10.3%
COCCn1c(C)cc(C(=O)CSc2cc(C)c3ccc(OC)cc3n2)c1C | inconclusive: 11.9 µM [inhibitor, partial curve] | 
Cc1occc1-c1nnc(SCc2nnc(-c3ccc(Cl)cc3)o2)n1C | active: 2.99 µM | 
CCCC(c1nnnn1Cc1cccs1)N1CCN(C)CC1 (stereo not given) | inconclusive: 21.2 µM [inhibitor, partial curve] | 
CC1CCC2(CC1)NC(=O)N(CC(=O)Nc1cccc(C#N)c1)C2=O (stereo not given) |  | inactive: 7.22%
COc1ccc(-c2c(C)n([O-])c(C)c(C)[n+]2=O)cc1 | active: 23.8 µM | 
COc1cc(-c2cc(C(=O)Nc3ccc(O)cc3)c3ccccc3n2)cc(OC)c1OC | active: 26.7 µM | 
O=C1Nc2ccccc2C1C(C[N+](=O)[O-])c1ccccn1 (stereo not given) |  | inactive: -25.6%
O=C(N/N=C/c1ccc([N+](=O)[O-])o1)c1ccccc1NS(=O)(=O)c1cccs1 | inconclusive: 29.9 µM [inhibitor, single point] | 
CN(C(=S)NC(=O)c1ccc(Cl)cc1)C1CCCCC1 | active: 21.2 µM | 
COc1cccc(C(=O)NC2CC3CCCC(C2)N3S(=O)(=O)c2ccccc2)c1 (stereo not given) |  | inconclusive: -5.45% [inhibitor]
COc1ccc(C=O)cc1CSc1ccccn1 | active: 23.8 µM | 
CCOCCCNC(=O)Cc1c(C(=O)O)[nH]c2ccc(Cl)cc12 |  | inactive: -11.2%
CCc1cc(=O)oc2c(C)c(OCC(=O)NCCCN3CCOCC3)ccc12 | inconclusive: 23.8 µM [inhibitor, partial curve] | 
COc1ccccc1CNCC(=O)Nc1ccc(N2CCOCC2)cc1 | inconclusive: 9.47 µM [inhibitor, partial curve] | 
CCC(CN(C)C)Oc1cc(NCc2ccccc2)c2ncn(C(C)C)c2c1 (stereo not given) | inconclusive: 29.9 µM [inhibitor, single point] | 
CC(=O)c1ccc(NC(=O)CCS(=O)(=O)c2ccc3c(c2)n(C)c(=O)c(=O)n3C)cc1 |  | inactive: -22.1%
O=C(COc1ncnc2sccc12)N1CCN(C(=O)c2ccco2)CC1 | inconclusive: 37.7 µM [inhibitor, single point] | 
CCN1CCN(C(=O)C2CCC(=O)N(CCCN3CCCC3=O)C2)CC1 (stereo not given) |  | inactive: -0.695%
O=C(CSc1nnc(-c2cccnc2)n1-c1ccc(F)cc1)NCc1ccc2c(c1)OCO2 | active: 11.9 µM | 

Fetched by compound from the list above:
Compound | Potency | max response, negative = inhibition
O=C1Nc2ccccc2C1C(C[N+](=O)[O-])c1ccccn1 (stereo not given) |  | inactive: -25.6%
CC1CCC2(CC1)NC(=O)N(CC(=O)Nc1cccc(C#N)c1)C2=O (stereo not given) |  | inactive: 7.22%
